Where two headings read alike, the source gives them in different places. This continues a long series; more values of the same kind are listed elsewhere.
Test system: TC/TEAD transcriptional profile in TC-expressing NIH3T3 cells
Assay: Bulk RNA-Seq, differential gene expression and GSEA (TC ATA v. TC DMSO)
Type: cell-based, murine
Experimental: NIH3T3 and HEK293 cells were obtained from the American Type Tissue Collection (ATCC, Manassas, VA) and cultured in DMEM containing 10% fetal bovine serum and penicillin/streptomycin. A TEAD dual luciferase reporter assay was performed as previously described. Cells were treated with vehicle control or ATA (10 μM) for 48 h before measuring the luciferase activity or processing the samples for RNA extraction. Each experiment was repeated at least 2-3 times. NIH3T3 cells were used. The extracted RNA (RNeasy Mini, Qiagen) from treated cells was either used for qPCR measurements or sent for bulk RNA-Seq. Sequencing runs were performed on an Illumina HiSeq 4000 sequencer (Genewiz). Subsequent bioinformatics analysis was performed in the Galaxy Project platform. Paired end reads were aligned to the murine genome ([…]2 [27]. Raw count files were generated with featureCounts using a corresponding GTF reference. Differential gene expression analysis was performed with DESeq2 [29]. Transcripts were considered to be differentially expressed if the false discovery rate < 0.05 and Log2FC > 2. When performing differential gene expression for GSEA analysis, the Limma package was used (<5 CPM filtering) with t-scores used for rank statistics. GSEA plots and statistics were generated with FGSEA with custom gene sets. Raw sequencing reads and processed files have been deposited in the GEO repository (data will be uploaded upon manuscript acceptance). The Universal Probe Library probes (Roche) and the associated primer sequences for the qPCR targets are listed below: […]

SMILES: O=C(O)C1=CC(=C(c2ccc(O)c(C(=O)O)c2)c2ccc(O)c(C(=O)O)c2)C=CC1=O [ATA, aurintricarboxylic acid]
- Log2 Fold Change: 0.2045
- Log2 Fold Change (3425401B19Rik, TC ATA v. TC DMSO): 0.7409
- Log2 Fold Change (8030462N17Rik, TC ATA v. TC DMSO): -0.2874
- Log2 Fold Change (Aatf, TC ATA v. TC DMSO): -0.2352
- Log2 Fold Change (Abhd4, TC ATA v. TC DMSO): 0.3011
- Log2 Fold Change (Acap3, TC ATA v. TC DMSO): 0.2894
- Log2 Fold Change (Accsl, TC ATA v. TC DMSO): 1.273
- Log2 Fold Change (Acot7, TC ATA v. TC DMSO): -0.2635
- Log2 Fold Change (Adam10, TC ATA v. TC DMSO): 0.2386
- Log2 Fold Change (Adam19, TC ATA v. TC DMSO): -0.2723
- Log2 Fold Change (Adamts7, TC ATA v. TC DMSO): -0.3907
- Log2 Fold Change (Add2, TC ATA v. TC DMSO): -1.031
- Log2 Fold Change (Agps, TC ATA v. TC DMSO): -0.2024
- Log2 Fold Change (Akap12, TC ATA v. TC DMSO): 0.3156
- Log2 Fold Change (Anks1b, TC ATA v. TC DMSO): -0.4283
- Log2 Fold Change (Ano10, TC ATA v. TC DMSO): 0.3064
- Log2 Fold Change (App, TC ATA v. TC DMSO): 0.218
- Log2 Fold Change (Arhgap20, TC ATA v. TC DMSO): 0.5197
- Log2 Fold Change (Arrb1, TC ATA v. TC DMSO): 0.3521
- Log2 Fold Change (Arrdc3, TC ATA v. TC DMSO): 0.2956
- Log2 Fold Change (Asb2, TC ATA v. TC DMSO): 0.5435
- Log2 Fold Change (Atp6ap2, TC ATA v. TC DMSO): 0.2427
- Log2 Fold Change (Atp8b2, TC ATA v. TC DMSO): 0.2261
- Log2 Fold Change (Atraid, TC ATA v. TC DMSO): 0.3834
- Log2 Fold Change (Bdkrb1, TC ATA v. TC DMSO): 1.219
- Log2 Fold Change (Btg2, TC ATA v. TC DMSO): 0.4034
- Log2 Fold Change (Btn1a1, TC ATA v. TC DMSO): -0.7404
- Log2 Fold Change (C1rl, TC ATA v. TC DMSO): 0.738
- Log2 Fold Change (Cacna1s, TC ATA v. TC DMSO): 0.5059
- Log2 Fold Change (Calhm2, TC ATA v. TC DMSO): 0.5559
- Log2 Fold Change (Capn2, TC ATA v. TC DMSO): -0.193
- Log2 Fold Change (Card19, TC ATA v. TC DMSO): 0.3138
- Log2 Fold Change (Casp12, TC ATA v. TC DMSO): 0.3191
- Log2 Fold Change (Cd36, TC ATA v. TC DMSO): 0.9953
- Log2 Fold Change (Cd44, TC ATA v. TC DMSO): -0.2149
- Log2 Fold Change (Cdc42se1, TC ATA v. TC DMSO): 0.2445
- Log2 Fold Change (Cdk18, TC ATA v. TC DMSO): -0.2357
- Log2 Fold Change (Celf5, TC ATA v. TC DMSO): 0.4618
- Log2 Fold Change (Cers5, TC ATA v. TC DMSO): 0.2188
- Log2 Fold Change (Clic5, TC ATA v. TC DMSO): 0.7796
- Log2 Fold Change (Cmtm3, TC ATA v. TC DMSO): 0.2156
- Log2 Fold Change (Col6a2, TC ATA v. TC DMSO): 0.3379
- Log2 Fold Change (Coq10a, TC ATA v. TC DMSO): 0.4029
- Log2 Fold Change (Cplx2, TC ATA v. TC DMSO): 0.2813
- Log2 Fold Change (Crebrf, TC ATA v. TC DMSO): 0.3555
- Log2 Fold Change (Crocc2, TC ATA v. TC DMSO): 0.6594
- Log2 Fold Change (Ctdsp2, TC ATA v. TC DMSO): 0.2516
- Log2 Fold Change (Ctsk, TC ATA v. TC DMSO): 0.4047
- Log2 Fold Change (Cxxc5, TC ATA v. TC DMSO): 0.3278
- Log2 Fold Change (Cyp2j6, TC ATA v. TC DMSO): 0.4082
- Log2 Fold Change (Dagla, TC ATA v. TC DMSO): -0.2839
- Log2 Fold Change (Dctd, TC ATA v. TC DMSO): -0.2607
- Log2 Fold Change (Ddx18, TC ATA v. TC DMSO): -0.2011
- Log2 Fold Change (Dgkz, TC ATA v. TC DMSO): -0.2256
- Log2 Fold Change (Dnajc3, TC ATA v. TC DMSO): 0.2583
- Log2 Fold Change (Dusp3, TC ATA v. TC DMSO): -0.2618
- Log2 Fold Change (Dusp5, TC ATA v. TC DMSO): -0.3501
- Log2 Fold Change (Eif2ak3, TC ATA v. TC DMSO): 0.3149
- Log2 Fold Change (Elmod3, TC ATA v. TC DMSO): 0.4179
- Log2 Fold Change (Emp1, TC ATA v. TC DMSO): -0.2395
- Log2 Fold Change (Eno2, TC ATA v. TC DMSO): 0.4152
- Log2 Fold Change (Enpp1, TC ATA v. TC DMSO): -0.3155
- Log2 Fold Change (Entpd5, TC ATA v. TC DMSO): 0.3022
- Log2 Fold Change (Epha2, TC ATA v. TC DMSO): -0.2242
- Log2 Fold Change (Erlec1, TC ATA v. TC DMSO): 0.2838
- Log2 Fold Change (Eya1, TC ATA v. TC DMSO): 0.3551
- Log2 Fold Change (F2r, TC ATA v. TC DMSO): 0.2295
- Log2 Fold Change (Fabp4, TC ATA v. TC DMSO): 0.7675
- Log2 Fold Change (Fam50a, TC ATA v. TC DMSO): 0.2362
- Log2 Fold Change (Fam171a1, TC ATA v. TC DMSO): -0.2264
- Log2 Fold Change (Fam234a, TC ATA v. TC DMSO): 0.2879
- Log2 Fold Change (Fkbp7, TC ATA v. TC DMSO): 0.3474
- Log2 Fold Change (Fuca2, TC ATA v. TC DMSO): 0.2852
- Log2 Fold Change (Fxyd6, TC ATA v. TC DMSO): 1.236
- Log2 Fold Change (Glul, TC ATA v. TC DMSO): -0.2652
- Log2 Fold Change (Gm2451, TC ATA v. TC DMSO): -0.6661
- Log2 Fold Change (Gm4841, TC ATA v. TC DMSO): -1.1029
- Log2 Fold Change (Gm6741, TC ATA v. TC DMSO): 1.204
- Log2 Fold Change (Gm10359, TC ATA v. TC DMSO): -0.7348
- Log2 Fold Change (Gm11478, TC ATA v. TC DMSO): -0.6635
- Log2 Fold Change (Gm12684, TC ATA v. TC DMSO): 1.198
- Log2 Fold Change (Gm14046, TC ATA v. TC DMSO): 1.114
- Log2 Fold Change (Gm21680, TC ATA v. TC DMSO): 1.106
- Log2 Fold Change (Gm43154, TC ATA v. TC DMSO): -1.088
- Log2 Fold Change (Gm47223, TC ATA v. TC DMSO): 0.4394
- Log2 Fold Change (Gpc6, TC ATA v. TC DMSO): 0.4134
- Log2 Fold Change (Gpr149, TC ATA v. TC DMSO): -1.21
- Log2 Fold Change (Gpr153, TC ATA v. TC DMSO): 0.3215
- Log2 Fold Change (Gria3, TC ATA v. TC DMSO): 0.3582
- Log2 Fold Change (H4c4, TC ATA v. TC DMSO): -1.216
- Log2 Fold Change (Hbegf, TC ATA v. TC DMSO): -0.311
- Log2 Fold Change (Hbp1, TC ATA v. TC DMSO): 0.319
- Log2 Fold Change (Herc3, TC ATA v. TC DMSO): 0.3669
- Log2 Fold Change (Hoxa2, TC ATA v. TC DMSO): 0.4667
- Log2 Fold Change (Hsd17b11, TC ATA v. TC DMSO): 0.346
- Log2 Fold Change (Hsp90aa1, TC ATA v. TC DMSO): -0.2026
- Log2 Fold Change (Hspd1, TC ATA v. TC DMSO): -0.2284
- Log2 Fold Change (Ier2, TC ATA v. TC DMSO): 0.3913
- Log2 Fold Change (Ift81, TC ATA v. TC DMSO): 0.313
- Log2 Fold Change (Iigp1, TC ATA v. TC DMSO): -1.2476
- Log2 Fold Change (Il1rl2, TC ATA v. TC DMSO): 0.3914
- Log2 Fold Change (Il6st, TC ATA v. TC DMSO): 0.2694
- Log2 Fold Change (Ing5, TC ATA v. TC DMSO): -0.2587
- Log2 Fold Change (Insig2, TC ATA v. TC DMSO): 0.2804
- Log2 Fold Change (Itga6, TC ATA v. TC DMSO): -0.231
- Log2 Fold Change (Itm2c, TC ATA v. TC DMSO): 0.2782
- Log2 Fold Change (Jmjd4, TC ATA v. TC DMSO): -0.2865
- Log2 Fold Change (Kbtbd8, TC ATA v. TC DMSO): -0.558
- Log2 Fold Change (Kcna4, TC ATA v. TC DMSO): 0.5662
- Log2 Fold Change (Kcnn4, TC ATA v. TC DMSO): -0.2769
- Log2 Fold Change (Kirrel, TC ATA v. TC DMSO): 0.2228
- Log2 Fold Change (Klf4, TC ATA v. TC DMSO): 0.2452

Reference: PMC9007350, “Aurintricarboxylic acid is a canonical disruptor of the TAZ-TEAD transcriptional complex” (PLoS ONE, 2022)
